Laboratory results as given in US11117946 (dated 2021).
Plain letter strings leave the end groups untold.

Experiment: general procedure: Fmoc solid-phase peptide synthesis; H-Gly-2-chlorotrityl resin (100-200 or 200-400 mesh); DIC/OXYMAPURE or TBTU/DIPEA; DEPBT/DIPEA for Boc-His(Boc)-OH
Settings: whole synthesis; for crude HPLC purity: analytical reversed phase UHPLC; for crude yield: gross yield based on peptide resin

Sequence: HAEGTFTSDVSSYLEGQAAKEFIAWLVRGRG
- crude HPLC purity (run 1): about 50%
- crude HPLC purity (run 2): 52.53%
- crude HPLC purity (run 3): 64.84%
- crude HPLC purity (run 4): 60.52%
- crude HPLC purity (run 5): 60.52%
- crude HPLC purity (run 6): 44.89%
- crude HPLC purity (run 7): 63.1%
- crude HPLC purity (run 8): 55.85%
- crude HPLC purity (run 9): 52.52%
- crude HPLC purity (run 10): 52.2%
- crude HPLC purity (run 11): 74.29%
- crude HPLC purity (run 12): 60.52%
- crude HPLC purity (run 13): 56.08%
- crude HPLC purity (run 14): 57.12%
- crude HPLC purity (run 15): 68.1%
- crude yield (run 1): 44%
- crude yield (run 2): 28%
- crude yield (run 3): 37%
- crude yield (run 4): 32%
- crude yield (run 5): 38%
- crude yield (run 6): 42%
- crude yield (run 7): 43%
- crude yield (run 8): 1%
- crude yield (run 9): 36%
- crude yield (run 10): 39%
- crude yield (run 11): 42%
- crude yield (run 12): 34%
- crude yield (run 13): 41%
